This passage reports binding results from US20100233095A1.

By UniProt entry, the sequences of proteins in these tests, tags left out. Residues count along the entry.
UniProt P05067, residues 672-713: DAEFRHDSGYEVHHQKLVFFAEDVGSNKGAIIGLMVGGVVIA

The experiment deals with soluble Aβ oligomers (UniProt P05067). Kind of experiment: pyrene fluorescence, as for FIG. 12 (data not shown).

Results are given in words; binding and its absence hold for the method and conditions named. Some entries that bind do so weakly or less than the wild type.

B1: Peptide 38 (SEQ ID NO:3) (peptide)
peptide: KLVFFAEDAAAAKHAIIELMK
modifications: pyrene at each terminus (di-pyrene labeled); C-terminal amide
As for B1, the binding entry was “binds”.
